According to publication PMC10112930:

Target: Armadillo-YFP (endogenously tagged Armadillo/β-Catenin, Armadillo-YFP[CPTI001198]) (Drosophila melanogaster (endogenous in embryos))
Assay: affinity purification with mass spectrometry; anti-GFP co-immunoprecipitation (GFP-nanobody magnetic beads) from soluble cold lysates of 0-9 hpf embryos (before muscle formation), compared with wild-type lysates; 50 mM Tris pH 7.4, 150 mM KCl, 0.5 mM EDTA, 0.01% Triton X-100; 1.5 h at 4°C; LC-MS/MS, MaxQuant/Perseus

binding: binds
B1: α-Catenin (protein, UniProt P35220 1-917)
chain: MLKPDKMGTLTDFGQIALKWDPKNLEIRTMSVEKTLEPLVLQVTTLVNTKGPSKKKKGKSKRASALVAAVEKATENFIQKGEQIAYENPDITQEMLTAVDEVKKTGDAMSIAAREFSEDPCSSLKRGNMVRAARNLLSAVTRLLILADMVDVHLLLKSLHIVEDDLNKLKNASSQDELMDNMRQFGRNAGELIKQAAKRQQELKDPQLRDDLAAARAMLKKHSTMLLTASKVYVRHPELDLAKVNRDFILKQVCDAVNTISDVAQGKSSQPTDIYSGAGELAAALDDFDEGIVMDPMTYSEKRSRQLLEERLESIISAAALMADADCTRDERRERIVAECNAVRQALQDLLSEYMSNMSQKDNSPGLSRAIDQMCRKTRDLRRQLRKAVVDHVSDSFLETTTPLLDLIEAAKSGNEKKVREKSEIFTKHAEKLVEVANLVCSMSNNEDGVKMVRYAAAQIESLCPQVINAASILTVRPNSKVAQENMTTYRQAWEVQVRILTEAVDDITTIDDFLAVSENHILEDVNKCVMALQVGDARDLRATAGAIQGRSSRVCNVVEAEMDNYEPCIYTKRVLEAVKVLRDQVMMKFDQRVGAAVGALSNNSNKDVDENDFIDASRLVYDGVREIRRAVLMNRSSEDLDTDTEFEPVEDLTLETRSRSSAHTGDQTVDEYPDISGICTAREAMRKMTEEDKQKIAQQVELFRREKLTFDSEVAKWDDTGNDIIFLAKHMCMIMMEMTDFTRGRGPLKTTMDVINAAKKISEAGTKLDKLTREIAEQCPESSTKKDLLAYLQRIALYCHQIQITSKVKADVQNISGELIVSGLDSATSLIQAAKNLMNAVVLTVKYSYVASTKYTRQGTVSSPIVVWKMKAPEKKPLVRPEKPEEVRAKVRKGSQKKVQNPIHALSEFQSPADAV

These are yes or no findings as the source states them, for the method shown. In cells and extracts the contact can be indirect. A yes stands for co-enrichment or nearness to the bait. Other partners may have been found.
